No constants are given. Whether binding was seen depends on the method and setting. Binding seen in cells or lysates may run through a third protein. Some results given as binding are weak or reduced against the parent protein; the word gives no strength.
Molecular target: endogenous TRIB3 of HepG2 cells (human (endogenous in HepG2)) (UniProt Q96RU7)
Experiment: co-IP; endogenous TRIB3 immunoprecipitated from HepG2 lysate with anti-TRIB3 (ab50516) on protein G-Sepharose, HEPES lysis buffer with 0.3% CHAPS, 1 h at 4 °C; MKK7 detected by Western blot; cells transfected with siRNA against TRIB1, TRIB2, TRIB3 or non-targeting control

The chains behind the UniProt entries cited, without tags or fusion partners.
UniProt Q96RU7: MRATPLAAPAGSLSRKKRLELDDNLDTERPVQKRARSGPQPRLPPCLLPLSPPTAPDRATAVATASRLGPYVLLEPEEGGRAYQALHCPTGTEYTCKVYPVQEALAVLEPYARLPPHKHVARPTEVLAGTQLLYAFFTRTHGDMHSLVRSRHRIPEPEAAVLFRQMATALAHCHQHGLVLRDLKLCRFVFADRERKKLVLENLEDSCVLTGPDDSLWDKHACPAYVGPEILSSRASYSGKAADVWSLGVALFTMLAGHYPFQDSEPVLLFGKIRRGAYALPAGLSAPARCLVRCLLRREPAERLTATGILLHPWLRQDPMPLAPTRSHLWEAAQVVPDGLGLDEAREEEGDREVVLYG
UniProt O14733: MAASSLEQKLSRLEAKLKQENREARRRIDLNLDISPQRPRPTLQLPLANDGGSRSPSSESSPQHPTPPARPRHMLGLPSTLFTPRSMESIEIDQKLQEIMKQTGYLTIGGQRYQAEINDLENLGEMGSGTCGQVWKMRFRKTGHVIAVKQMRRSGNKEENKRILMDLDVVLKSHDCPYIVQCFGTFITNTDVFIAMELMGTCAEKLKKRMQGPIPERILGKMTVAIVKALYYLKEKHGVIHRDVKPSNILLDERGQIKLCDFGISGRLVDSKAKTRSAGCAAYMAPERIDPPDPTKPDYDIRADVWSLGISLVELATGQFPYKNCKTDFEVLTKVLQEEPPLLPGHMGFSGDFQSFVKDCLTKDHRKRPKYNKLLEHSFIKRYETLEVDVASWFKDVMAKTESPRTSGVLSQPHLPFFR

endogenous MKK7 of HepG2 cells (from UniProt O14733 1-419)
binding: binds

Source: paper PMC5013389
